Measured values: publication PMC3814315

Target: GFP-dPNUTS-Myc (D. melanogaster) (UniProt Q70HU3)
Assay: co-IP; S2 cells transfected with Flag-Myc-dWdr82, GFP-dPNUTS-Myc or both; ectopic dPNUTS precipitated with GFP-Trap beads, Western blotting with anti-Myc antibodies

- binding: binds
B1: Flag-Myc-dWdr82 (Drosophila Wdr82) (protein, UniProt Q9VLN1 1-317)
chain: MKIKLIDSVVRSFKVAKIFRENTDKINAIDFAPNGEHLISCSEDDQIVIYDCEKGTQSRTVNSKKYGVDLIHFTHANNTAIHSSTKVDDTIRYLSLHDNKYLRYFPGHTKKVISLCISPVEDTFLSGSLDKTLRLWDLRSPNCQGLMHLSGRPIAAYDPEGLIFAAGVNSESIKLYDLRSFDKGPFVTFKLNQEKECDWTGLKFSRDGKTILISTNGSVIRLVDAFHGTPLQTFTGYPNNKGIPIEASFSPDSQFIFSGSTDGRVHIWNADTGNKVSVLNGDHPGPVQCVQFNPKYMMLASACTNMAFWLPTSEEGL

Results are given in words; binding and its absence hold for the method and conditions named. Binding seen in cells or lysates may run through a third protein. Binding can be weak; no strength is given. Tags and fused reporters may be left off the sequences shown.
